From paper PMC10181192
No constants are given. Whether binding was seen depends on the method and setting. Binding seen in cells or lysates may run through a third protein. Some results given as binding are weak or reduced against the parent protein; the word gives no strength. One block for each binder: values may come before it.

By UniProt entry, the sequences of proteins in these tests, tags left out. Residues count along the entry.
UniProt Q63155, residues 26-1445: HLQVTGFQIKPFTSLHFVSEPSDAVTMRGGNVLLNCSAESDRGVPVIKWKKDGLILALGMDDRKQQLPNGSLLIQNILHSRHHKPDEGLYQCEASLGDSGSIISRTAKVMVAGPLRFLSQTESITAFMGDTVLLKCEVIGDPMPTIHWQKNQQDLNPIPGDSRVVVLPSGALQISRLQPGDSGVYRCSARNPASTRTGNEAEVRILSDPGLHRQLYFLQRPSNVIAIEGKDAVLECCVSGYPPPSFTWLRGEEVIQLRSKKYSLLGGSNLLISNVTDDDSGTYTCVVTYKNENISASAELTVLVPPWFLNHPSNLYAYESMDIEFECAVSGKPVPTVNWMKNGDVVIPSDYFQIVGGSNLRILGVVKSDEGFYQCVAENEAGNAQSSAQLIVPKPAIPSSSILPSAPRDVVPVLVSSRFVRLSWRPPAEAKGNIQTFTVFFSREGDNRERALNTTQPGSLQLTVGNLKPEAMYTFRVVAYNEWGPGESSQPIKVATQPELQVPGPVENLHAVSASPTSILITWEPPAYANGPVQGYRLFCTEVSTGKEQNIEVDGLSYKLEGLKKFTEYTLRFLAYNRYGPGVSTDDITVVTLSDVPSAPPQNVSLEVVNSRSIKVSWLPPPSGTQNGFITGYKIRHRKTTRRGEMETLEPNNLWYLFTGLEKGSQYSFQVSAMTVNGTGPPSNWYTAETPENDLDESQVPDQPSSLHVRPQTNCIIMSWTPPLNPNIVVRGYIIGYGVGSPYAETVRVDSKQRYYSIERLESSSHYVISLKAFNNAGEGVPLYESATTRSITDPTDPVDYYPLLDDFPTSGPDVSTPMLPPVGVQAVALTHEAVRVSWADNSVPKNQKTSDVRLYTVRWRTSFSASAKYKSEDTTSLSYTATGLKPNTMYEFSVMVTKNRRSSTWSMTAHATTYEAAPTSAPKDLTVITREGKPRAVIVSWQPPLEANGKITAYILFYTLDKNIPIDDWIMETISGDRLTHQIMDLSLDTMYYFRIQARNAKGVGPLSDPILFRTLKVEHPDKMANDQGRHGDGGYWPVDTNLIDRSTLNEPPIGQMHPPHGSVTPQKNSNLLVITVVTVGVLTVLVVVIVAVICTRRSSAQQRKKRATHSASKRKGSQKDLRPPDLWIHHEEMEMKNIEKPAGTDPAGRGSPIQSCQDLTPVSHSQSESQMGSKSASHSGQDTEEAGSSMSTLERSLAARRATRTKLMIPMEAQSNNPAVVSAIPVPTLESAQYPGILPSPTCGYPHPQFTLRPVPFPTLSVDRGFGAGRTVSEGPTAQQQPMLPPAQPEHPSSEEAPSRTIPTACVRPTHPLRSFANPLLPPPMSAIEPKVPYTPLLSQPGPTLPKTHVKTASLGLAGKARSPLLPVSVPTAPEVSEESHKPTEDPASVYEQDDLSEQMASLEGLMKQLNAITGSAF

Tests used:
[1] = target: endogenous Dcc (rat (endogenous in commissural neurons)) (UniProt Q63155); assay: co-IP; endogenous proteins; rat commissural neuron lysate in SLB buffer (10 mM tris pH 8, 150 mM NaCl, 0.5% Igepal); IP with anti-DCC antibody or IgG control, protein A/G-agarose, 3 hours; Western blot
[2] = target: endogenous Dcc (rat (endogenous in commissural neurons)) (UniProt Q63155); assay: proximity ligation; endogenous proteins in fixed dissociated rat commissural neurons treated with BSA or Netrin-1 (0.1 μg/ml) for 2 or 5 min; antibodies against DCC and ARHGEF7 or GIT1; Duolink in situ PLA kit

binding [1]: binds | binding [2]: binds
B1: endogenous Git1 (protein, UniProt Q9Z272 1-770)
chain: MSRKGPRAEVCADCSAPDPGWASISRGVLVCDECCSVHRSLGRHISIVKHLRHSAWPPTLLQMVHTLASNGANSIWEHSLLDPAQVQSGRRKANPQDKVHPIKSEFIRAKYQMLAFVHKLPCRDDDGVTAKDLSKQLHSSVRTGNLETCLRLLSLGAQANFFHPEKGTTPLHVAAKAGQTLQAELLVVYGADPGSPDVNGRTPIDYARQAGHHELAERLVECQYELTDRLAFYLCGRKPDHKNGHYIIPQMADRSRQKCMSQSLDLSELAKAAKKKLQALSNRLFEELAMDVYDEVDRRENDAVWLATQNHSTLVTERSAVPFLPVNPEYSATRNQGRQKLARFNAREFATLIIDILSEAKRRQQGKSLSSPTDNLELSARNQSDLDDQHDYDSVASDEDTDQEPLPSAGATRNNRARSMDSSDLSDGAVTLQEYLELKKALATSEAKVQQLMKVNSSLSDELRKLQREIHKLQAENLQLRQPPGPVPVPSLPSERAEHTLMGPGGSTHRRDRQAFSMYEPGSALKPFGGAPGDELATRLQPFHSTELEDDAIYSVHVPAGLYRIRKGVSASSVTFTPSSPLLSSSQEGSRHASKLSRHGSGAESDYENTQSGEPLLGLEGKRFLELSKEDELHAELESLDGDPDPGLPSTEDVILKTEQVTKNIQELLRAAQEFKHDSFVPCSEKIHLAVTEMASLFPKRPALEPVRSSLRLLNASAYRLQSECRKTVPPEPGAPVDFQLLTQQVIQCAYDIAKAAKQLVTITTREKKQ

binding [1]: binds | binding [2]: binds
B2: endogenous Arhgef7 (protein, UniProt O55043 1-646)
chain: MTDNANSQLVVRAKFNFQQTNEDELSFSKGDVIHVTRVEEGGWWEGTHNGRTGWFPSNYVREIKPSEKPVSPKSGTLKSPPKGFDTTAINKSYYNVVLQNILETEHEYSKELQSVLSTYLWPLQTSEKLSSANTSYLMGNLEEISSFQQVLVQSLEECTKSPEAQQRVGGCFLSLMPQMRTLYLAYCANHPSAVSVLTEHSEDLGEFMETKGASSPGILVLTTGLSKPFMRLDKYPTLLKELERHMEDYHPDRQDIQKSMTAFKNLSAQCQEVRKRKELELQILTEPIRSWEGDDIKTLGSVTYMSQVTIQCAGSEEKNERYLLLFPNLLLMLSASPRMSGFIYQGKLPTTGMTITKLEDSENHRNAFEISGSMIERILVSCNNQQDLHEWVEHLQRQTKVTSVSNPTIKPHSVPSHTLPSHPLTPSSKHADSKPVALTPAYHTLPHPSHHGTPHTTISWGPLEPPKTPKPWSLSCLRPAPPLRPSAALCYKEDLSRSPKTMKKLLPKRKPERKPSDEEFAVRKSTAALEEDAQILKVIEAYCTSAKTRQTLNSSSRKESAPQVLLPEEEKIIVEETKSNGQTVIEEKSLVDTVYALKDEVQELRQDNKKMKKSLEEEQRARKDLEKLVRKVLKNMNDPAWDETNL
